Measured values: the supplement of paper PMC8426693
The other results are listed elsewhere or left out.

Key:
Test in all cases: NMR binding call after quantification (hit when 2 of 3 NMR criteria are met) (binary (1 = binding, 0 = not binding)); higher = binding
Details in all cases: RNA concentration 10 µM; fragment concentration 200 µM; 293 K
SARS-CoV-2 3'-UTR RNA = system: SARS-CoV-2 3'-UTR RNA
SARS-CoV-2 3_SL1 RNA = system: SARS-CoV-2 3_SL1 RNA
SARS-CoV-2 3_SL1+2 RNA = system: SARS-CoV-2 3_SL1+2 RNA
SARS-CoV-2 3_SL2 RNA = system: SARS-CoV-2 3_SL2 RNA
SARS-CoV-2 3_SL3base RNA = system: SARS-CoV-2 3_SL3base RNA
SARS-CoV-2 3_s2m RNA = system: SARS-CoV-2 3_s2m RNA
SARS-CoV-2 5'-UTR RNA = system: SARS-CoV-2 5'-UTR RNA
SARS-CoV-2 5_SL1 RNA = system: SARS-CoV-2 5_SL1 RNA
SARS-CoV-2 5_SL1234 RNA = system: SARS-CoV-2 5_SL1234 RNA
SARS-CoV-2 5_SL2+3 RNA = system: SARS-CoV-2 5_SL2+3 RNA
SARS-CoV-2 5_SL4 RNA = system: SARS-CoV-2 5_SL4 RNA
SARS-CoV-2 5_SL5 RNA = system: SARS-CoV-2 5_SL5 RNA
SARS-CoV-2 5_SL5a RNA = system: SARS-CoV-2 5_SL5a RNA
SARS-CoV-2 5_SL5b+c RNA = system: SARS-CoV-2 5_SL5b+c RNA
SARS-CoV-2 5_SL6 RNA = system: SARS-CoV-2 5_SL6 RNA
SARS-CoV-2 5_SL5stem RNA = system: SARS-CoV-2 5_SL5stem RNA

Measured: NMR binding call

O=C(Nc1ccc(-n2cnnn2)cc1)C1CCC1
not listed: SARS-CoV-2 5_SL5stem RNA
0: all other assays above

c1nc(CN2CCNCC2)cs1
0: all assays above

CC(CO)(CO)NC(=O)Nc1ccccc1
not listed: SARS-CoV-2 5_SL5a RNA | SARS-CoV-2 5_SL6 RNA
0: all other assays above

CC(C)COc1ccc(C(=O)N2CCCC2)cc1
0: all assays above

CC(C)c1nccn1CC(=O)O
0: all assays above

CN(C)Cc1nc(C2(N)CCCC2)no1
not listed: SARS-CoV-2 5_SL5 RNA
0: all other assays above

CNCCC1CCCCC1
0: all assays above

Oc1ccc(CN2CCCC2)c2cccnc12
1: SARS-CoV-2 3'-UTR RNA | SARS-CoV-2 3_SL3base RNA | SARS-CoV-2 5'-UTR RNA
not listed: SARS-CoV-2 5_SL5 RNA
0: all other assays above

CC(C)(C)NC(=O)Cn1ccc(C(F)(F)F)n1
0: all assays above

CCC(C)NC(=O)c1ccccc1N (configuration not stated)
0: all assays above

COCc1cc(C(N)=O)no1
0: all assays above

CCC(CC)C(=O)Nc1nccs1
0: all assays above

Cl.Cl.c1cn(CC2CCCCN2)nn1 (configuration not stated)
not listed: SARS-CoV-2 5_SL2+3 RNA
0: all other assays above

Cc1cnc(N2CCNCC2)s1.Cl.Cl
not listed: SARS-CoV-2 5_SL2+3 RNA
0: all other assays above
